Source: publication PMC10688287, “RNA binding protein AUF1/HNRNPD regulates nuclear export, stability and translation of SNCA transcripts” (Open Biology, 2023)
These are yes or no findings as the source states them, for the method shown. In cells and extracts the contact can be indirect. Some entries that bind do so weakly or less than the wild type.

The chains behind the UniProt entries cited, without tags or fusion partners.
UniProt A5YKK6: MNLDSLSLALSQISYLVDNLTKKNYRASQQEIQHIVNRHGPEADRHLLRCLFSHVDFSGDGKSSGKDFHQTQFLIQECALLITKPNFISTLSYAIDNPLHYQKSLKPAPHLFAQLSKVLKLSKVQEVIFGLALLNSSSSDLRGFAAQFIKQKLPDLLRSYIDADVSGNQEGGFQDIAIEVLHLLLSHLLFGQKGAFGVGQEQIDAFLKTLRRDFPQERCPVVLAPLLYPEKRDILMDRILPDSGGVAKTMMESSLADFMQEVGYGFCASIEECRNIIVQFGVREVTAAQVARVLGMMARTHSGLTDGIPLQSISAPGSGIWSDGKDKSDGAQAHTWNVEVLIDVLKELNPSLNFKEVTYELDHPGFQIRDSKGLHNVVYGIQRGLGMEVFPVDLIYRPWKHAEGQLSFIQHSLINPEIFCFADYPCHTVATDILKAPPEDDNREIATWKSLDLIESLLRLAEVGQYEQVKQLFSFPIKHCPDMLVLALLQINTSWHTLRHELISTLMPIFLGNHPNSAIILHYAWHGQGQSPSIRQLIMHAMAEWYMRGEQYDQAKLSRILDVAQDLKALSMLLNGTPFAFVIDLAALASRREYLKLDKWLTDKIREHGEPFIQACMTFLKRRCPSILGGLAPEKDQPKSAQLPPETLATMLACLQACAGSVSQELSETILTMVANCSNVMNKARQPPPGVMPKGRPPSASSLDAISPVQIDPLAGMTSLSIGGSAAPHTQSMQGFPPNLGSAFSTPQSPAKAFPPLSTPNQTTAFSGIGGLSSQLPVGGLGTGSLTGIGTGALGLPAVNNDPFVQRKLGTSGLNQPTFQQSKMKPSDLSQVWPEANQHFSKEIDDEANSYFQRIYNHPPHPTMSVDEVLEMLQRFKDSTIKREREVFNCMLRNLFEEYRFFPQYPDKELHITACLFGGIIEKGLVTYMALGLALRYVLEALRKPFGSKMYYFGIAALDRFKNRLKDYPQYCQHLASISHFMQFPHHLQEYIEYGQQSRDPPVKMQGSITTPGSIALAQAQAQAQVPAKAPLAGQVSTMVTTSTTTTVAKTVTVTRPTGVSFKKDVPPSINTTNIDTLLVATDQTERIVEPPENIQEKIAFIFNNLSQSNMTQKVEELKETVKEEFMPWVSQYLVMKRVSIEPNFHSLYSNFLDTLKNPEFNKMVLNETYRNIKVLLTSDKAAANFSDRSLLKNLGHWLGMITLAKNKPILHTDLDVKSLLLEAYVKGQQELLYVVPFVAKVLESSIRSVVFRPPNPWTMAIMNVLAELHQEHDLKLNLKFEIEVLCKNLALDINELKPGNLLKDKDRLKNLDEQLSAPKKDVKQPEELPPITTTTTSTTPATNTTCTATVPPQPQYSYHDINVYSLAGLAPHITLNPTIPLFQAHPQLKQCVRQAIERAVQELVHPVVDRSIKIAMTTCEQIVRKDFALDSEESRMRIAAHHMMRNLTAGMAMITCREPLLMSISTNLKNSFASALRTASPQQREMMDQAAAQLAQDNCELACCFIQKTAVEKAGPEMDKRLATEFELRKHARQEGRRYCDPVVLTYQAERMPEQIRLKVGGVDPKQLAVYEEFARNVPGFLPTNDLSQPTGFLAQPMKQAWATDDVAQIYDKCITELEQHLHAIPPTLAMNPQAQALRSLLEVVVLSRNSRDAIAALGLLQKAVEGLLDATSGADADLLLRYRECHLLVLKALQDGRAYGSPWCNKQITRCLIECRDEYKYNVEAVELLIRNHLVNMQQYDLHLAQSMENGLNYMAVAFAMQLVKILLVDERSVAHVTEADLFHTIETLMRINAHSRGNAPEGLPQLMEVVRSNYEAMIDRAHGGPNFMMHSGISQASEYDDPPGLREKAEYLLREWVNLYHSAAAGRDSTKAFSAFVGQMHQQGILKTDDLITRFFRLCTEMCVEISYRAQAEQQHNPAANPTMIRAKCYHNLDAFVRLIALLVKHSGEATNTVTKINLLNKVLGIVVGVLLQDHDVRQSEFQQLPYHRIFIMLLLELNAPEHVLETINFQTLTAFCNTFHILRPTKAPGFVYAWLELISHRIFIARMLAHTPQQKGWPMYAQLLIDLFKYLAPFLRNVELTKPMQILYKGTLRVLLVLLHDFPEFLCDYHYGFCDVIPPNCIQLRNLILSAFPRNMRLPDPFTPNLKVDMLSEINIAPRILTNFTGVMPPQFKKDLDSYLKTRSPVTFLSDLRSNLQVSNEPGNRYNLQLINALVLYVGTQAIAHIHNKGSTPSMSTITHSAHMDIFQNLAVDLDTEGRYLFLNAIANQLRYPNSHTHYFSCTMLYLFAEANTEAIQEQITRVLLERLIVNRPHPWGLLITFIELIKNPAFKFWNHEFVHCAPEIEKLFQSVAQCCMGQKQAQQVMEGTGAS
UniProt P11940: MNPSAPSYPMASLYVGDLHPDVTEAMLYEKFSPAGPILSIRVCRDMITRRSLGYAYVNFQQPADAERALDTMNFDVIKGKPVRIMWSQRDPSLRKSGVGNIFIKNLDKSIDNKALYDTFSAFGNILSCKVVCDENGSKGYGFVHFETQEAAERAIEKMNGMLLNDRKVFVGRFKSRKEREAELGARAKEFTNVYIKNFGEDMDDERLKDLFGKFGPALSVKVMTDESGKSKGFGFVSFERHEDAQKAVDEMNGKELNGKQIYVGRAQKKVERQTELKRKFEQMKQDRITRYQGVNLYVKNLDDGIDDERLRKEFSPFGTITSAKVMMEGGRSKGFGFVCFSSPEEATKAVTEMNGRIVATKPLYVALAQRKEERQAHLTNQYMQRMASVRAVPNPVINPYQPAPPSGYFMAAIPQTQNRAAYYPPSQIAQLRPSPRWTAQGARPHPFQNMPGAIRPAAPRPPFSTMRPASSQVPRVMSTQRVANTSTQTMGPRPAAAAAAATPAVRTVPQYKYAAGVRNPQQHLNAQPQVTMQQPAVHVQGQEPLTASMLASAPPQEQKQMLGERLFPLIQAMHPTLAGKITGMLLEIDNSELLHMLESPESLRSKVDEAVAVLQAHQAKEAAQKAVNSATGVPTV

Biological target: T1, CNOT1 (UniProt A5YKK6 1-2376)
T1 construct: CNOT1, scaffold subunit of the CCR4-NOT deadenylase complex; Endogenous human CNOT1 of the SK-N-SH cells is precipitated by the anti-CNOT1 antibody as well; source: SK-N-SH, transfected (CNOT1 plasmid), in lysate
Experiment: co-IP; anti-CNOT1 antibody or control IgG, protein A/G magnetic beads; lysates of SK-N-SH cells 48 h after co-transfection with CNOT1 and either empty or AUF1-expressing plasmid; PLB lysis buffer (10 mM HEPES pH 7.0, 100 mM KCl, 5 mM MgCl2, 0.5% NP-40); washes in NT2 buffer with 250 mM NaCl; Western blot

binding: binds
Substance: PABPC1 (from UniProt P11940 1-636)
